Assay results published in patent publication US20210238294A1 (JIANGSU HENGRUI MEDICINE, published 2021).

Molecular target: his-tagged rhesus IL-4R recombinant protein (rhesus)
Assay: ELISA, plate-coated rhesus IL-4R-his

Binder | binding
murine monoclonal antibody 25G7 (antibody, V domains shown) VH: EVQLVESGGGLVKPGGSLKLSCAASGFTFSDYGMHWVRQAPEKGLEWVAFISSGSSIIYYADIVKGRSTISRDNAKNTLFLQMTSLRSEDTAMYYCTRGNKRGFFDYWGQGTILTVSS VL: QIVLTQSPALMSASPGEKVTMTCNASSSVSYMYWYQRKPRSSPKPWIYLTSNLASGVPVRFSGSGSGTSYSLTISSMEAEDAATYYCQQWRSNPPMLTFGSGTKLEVK | no binding
human-mouse chimeric antibody 25G7-C (antibody, V domains shown) VH: EVQLVESGGGLVKPGGSLKLSCAASGFTFSDYGMHWVRQAPEKGLEWVAFISSGSSIIYYADIVKGRSTISRDNAKNTLFLQMTSLRSEDTAMYYCTRGNKRGFFDYWGQGTILTVSS VL: QIVLTQSPALMSASPGEKVTMTCNASSSVSYMYWYQRKPRSSPKPWIYLTSNLASGVPVRFSGSGSGTSYSLTISSMEAEDAATYYCQQWRSNPPMLTFGSGTKLEVK | no binding
humanized antibody hu25G7 (with VH-c heavy chain and VL-a light chain) (antibody, human IgG4 S228P, kappa, V domains shown) VH: EVQLVESGGGLVQPGGSLRLSCAASGFTFSDYGMHWVRQAPGKGLEWVAFISSGSSIIYYADIVKGRSTISRDNAKNSLYLQMNSLRAEDTAVYYCTRGNKRGFFDYWGQGTLVTVSS VL: EIVLTQSPATLSLSPGERATLSCNASSSVSYMYWYQQKPGQAPRLLIYLTSNLASGIPARFSGSGSGTDFTLTISSLEPEDFAVYYCQQWRSNPPMLTFGGGTKVEIKR | no binding
mouse monoclonal antibody 7B10 (antibody, V domains shown) VH: QVQLQQPGTELLKPGASVSLSCKASGYTFTSYWMHWVKQRPGQGLEWIGLIHPNSDTTKFSENFKTRATLTIDKSSSTAYMKLSSLTSEDSAVYYCAKSKIITTIVARHWYFDVWGTGTTVTVSS VL: DIVLTQSPPSLAVSLGQRATISCKASQSVDYGGDSYMNWYQQKLGQPPKVLIYAASNLESGIPARFSGSGSGTDFTLNIHPVEEEDVATYYCQHSNENPPTFGGGTKLEIK | no binding
human-mouse chimeric antibody 7B10-C (antibody, V domains shown) VH: QVQLQQPGTELLKPGASVSLSCKASGYTFTSYWMHWVKQRPGQGLEWIGLIHPNSDTTKFSENFKTRATLTIDKSSSTAYMKLSSLTSEDSAVYYCAKSKIITTIVARHWYFDVWGTGTTVTVSS VL: DIVLTQSPPSLAVSLGQRATISCKASQSVDYGGDSYMNWYQQKLGQPPKVLIYAASNLESGIPARFSGSGSGTDFTLNIHPVEEEDVATYYCQHSNENPPTFGGGTKLEIK | no binding
humanized antibody hu7B10 (with VH-b heavy chain and VL-b light chain) (antibody, human IgG1, kappa, V domains shown) VH: EVQLVQSGAEVKKPGASVKVSCKASGYTFTSYWMHWVRQAPGQGLEWMGLIHPNSDTTKFSENFKTRVTMTIDTSISTAYMELSRLRSDDTAVYYCAKSKIITTIVARHWYFDVWGQGTTVTVSS VL: DIVLTQTPLSLSVTPGQPASISCKASQSVDYGGDSYMNWYLQKPGQPPQLLIYAASNLESGVPDRFSGSGSGTDFTLKISRVEAEDVGVYYCQHSNENPPTFGGGTKVEIKR | no binding

Results are given in words; binding and its absence hold for the method and conditions named.
